Source: PubChem BioAssay AID504764 (Drosophila RNAi Screening Center, 2011)

Test: 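Genome-wide screen for regulators of Notch-driven gene expression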 (primary screen)
System: Drosophila Kc167 cells
Reagent: long dsRNA against Drosophila genes
Timing: about 5 days (4 days dsRNA, then 24 h after transfection)
Treatment: transfection of constitutively active membrane-tethered Notch lacking the extracellular domain, read 24 h later
Measurement: 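Firefly luciferase from an E(spl)m3 reporter with active Notch, plus control-promoter and uninduced reporter wells for normalisation; unnormalised counts, duplicate wells a and b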
Reading the numbers: induced reporter light, run 1, well a and induced reporter light, run 1, well b: higher = more light from the Notch target reporter with active Notch; control promoter light, run 1, well a and control promoter light, run 1, well b: higher = more light from the viral control promoter (cell number, transfection, viability); uninduced reporter light, run 1, well a: higher = more light from the Notch target reporter without active Notch
Hit rule: 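Hit if the duplicate-averaged log2 ratio of induced to control-promoter light gives a plate-wise z beyond ±2, or induced to uninduced beyond ±1.8; weak-control or discordant-duplicate wells dropped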
Meaning of the calls: active = modifier hit (raised or lowered Notch signal); inactive = not a hit
The deposit covers about 22,000 reagents; this is an unselected part of those that have a named target and a result. In the full data, 403 (1.9%) got an active call. 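Unnormalised raw counts per well; ratio z-scores behind the hit calls and whether each hit raises or lowers signal are not deposited.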 The numbers tell different reagents against one gene apart. Not stated in the record: the amount of reagent.

Target gene	reagent	induced reporter light, run 1, well a	induced reporter light, run 1, well b	control promoter light, run 1, well a	control promoter light, run 1, well b	uninduced reporter light, run 1, well a	outcome
aust (australin)	1	1.11e5	1.34e5	63545	94515	17310	inactive
CG34150	1	1.64e5	1.69e5	1.91e5	1.89e5	14070	inactive
Not11 (CCR4-NOT transcription complex subunit 11)	1	1.80e5	1.92e5	1.31e5	1.42e5	15015	inactive
CG5255	1	2.00e5	1.88e5	1.69e5	1.83e5	13925	inactive
Dop1R2 (Dopamine 1-like receptor 2)	1	1.72e5	1.78e5	1.63e5	1.78e5	13700	inactive
Dop1R2 (Dopamine 1-like receptor 2)	2	1.14e5	1.01e5	1.68e5	1.93e5	11480	inactive
CG18530	1	1.07e5	1.19e5	1.34e5	74460	6582	inactive
Ddx1 (Dead-box-1)	1	1.66e5	1.76e5	94475	1.07e5	9785	inactive
CG13124	1	2.83e5	2.87e5	1.96e5	2.17e5	20415	inactive
CG42337	1	1.02e5	1.08e5	99675	74550	8955	inactive
CG42337	2	13770	9705	9060	9575	2755	inactive
CG12177	1	26355	22075	26060	31720	1800	inactive
COX7C (Cytochrome c oxidase subunit 7C)	1	1.87e5	1.64e5	1.62e5	1.76e5	12010	inactive
slif (slimfast)	1	1.12e5	94090	80640	98460	8828	inactive
Reepl1 (Receptor accessory protein like 1)	1	1.43e5	1.25e5	2.16e5	1.75e5	9195	inactive
betaGlu (beta glucuronidase)	1	1.77e5	1.87e5	2.40e5	2.51e5	14620	inactive
5-HT1B (5-hydroxytryptamine (serotonin) receptor 1B)	1	1.17e5	98240	99315	1.36e5	8020	inactive
5-HT1B (5-hydroxytryptamine (serotonin) receptor 1B)	2	1.04e5	1.20e5	1.70e5	1.29e5	8605	inactive
mats (mob as tumor suppressor)	1	98640	91045	1.34e5	1.16e5	12830	inactive
mats (mob as tumor suppressor)	2	1.30e5	1.48e5	1.46e5	1.40e5	11845	inactive
CG10481	1	71430	41890	54970	71960	4375	inactive
CG17816	1	96820	1.21e5	1.35e5	1.09e5	9650	inactive
CG32591	1	91095	96590	98770	91940	6960	inactive
CG34283	1	2.22e5	1.98e5	3.11e5	3.26e5	13655	inactive
CG16998	1	2.21e5	1.65e5	1.67e5	1.83e5	8535	inactive
CG1575	1	1.97e5	1.97e5	1.86e5	2.20e5	15400	inactive
CG42535	1	2.00e5	1.98e5	2.05e5	2.27e5	13265	inactive
CG6398	1	1.14e5	1.05e5	91610	63470	9645	inactive
robl22E	1	1.07e5	99660	1.05e5	50400	9495	inactive
CG1695	1	82140	93610	1.02e5	1.58e5	11240	inactive
unc-104 (uncoordinated-104)	1	1.01e5	87955	1.10e5	1.01e5	7590	inactive
wge (winged eye)	1	1.58e5	1.72e5	2.48e5	2.64e5	11945	inactive
wge (winged eye)	2	1.52e5	1.58e5	1.88e5	1.92e5	11065	inactive
Mau2	1	1.18e5	98095	83615	73250	7905	inactive
Odj (Oddjob)	1	1.66e5	1.73e5	2.09e5	2.08e5	15485	inactive
MBD-like (Methyl-CpG binding domain protein-like)	1	74715	79550	84420	65200	3432	inactive
ImpL1 (Ecdysone-inducible gene L1)	1	1.37e5	1.37e5	89450	65725	11105	inactive
CG10657	1	1.34e5	1.10e5	71460	43950	8665	inactive
numb	1	1.83e5	2.44e5	2.00e5	2.04e5	17582	inactive
CG14566	1	1.26e5	1.11e5	1.34e5	95975	11415	inactive
Ufl1 (UFM1 specific ligase 1)	1	1.41e5	1.36e5	88530	87120	8310	inactive
Ahcy (Adenosylhomocysteinase)	1	1.47e5	1.40e5	1.72e5	1.46e5	12705	inactive
Ephrin	1	1.37e5	1.22e5	1.89e5	1.92e5	9505	inactive
Cortactin	1	1.83e5	1.97e5	2.15e5	2.33e5	15515	inactive
exu (exuperantia)	1	1.19e5	99085	2.30e5	2.43e5	11080	inactive
CG5440	1	1.12e5	83885	1.06e5	67510	9315	inactive
CG1648	1	1.49e5	1.38e5	1.62e5	1.33e5	14025	inactive
CG31161	1	1.37e5	1.73e5	2.28e5	2.16e5	12295	inactive
Mbs (Myosin binding subunit)	1	2.66e5	1.86e5	3.75e5	3.06e5	18050	inactive
Mbs (Myosin binding subunit)	2	1.02e5	1.61e5	76810	89520	11000	inactive
Mbs (Myosin binding subunit)	3	2.52e5	2.08e5	2.80e5	3.06e5	11535	inactive

Reformatted: results already given
CG14566: induced reporter light, run 1, well a = 1.26e5; induced reporter light, run 1, well b = 1.11e5; control promoter light, run 1, well a = 1.34e5; control promoter light, run 1, well b = 95975; uninduced reporter light, run 1, well a = 11415; outcome = inactive
Ufl1 (UFM1 specific ligase 1): induced reporter light, run 1, well a = 1.41e5; induced reporter light, run 1, well b = 1.36e5; control promoter light, run 1, well a = 88530; control promoter light, run 1, well b = 87120; uninduced reporter light, run 1, well a = 8310; outcome = inactive
Ahcy (Adenosylhomocysteinase): induced reporter light, run 1, well a = 1.47e5; induced reporter light, run 1, well b = 1.40e5; control promoter light, run 1, well a = 1.72e5; control promoter light, run 1, well b = 1.46e5; uninduced reporter light, run 1, well a = 12705; outcome = inactive
Ephrin: induced reporter light, run 1, well a = 1.37e5; induced reporter light, run 1, well b = 1.22e5; control promoter light, run 1, well a = 1.89e5; control promoter light, run 1, well b = 1.92e5; uninduced reporter light, run 1, well a = 9505; outcome = inactive
Cortactin: induced reporter light, run 1, well a = 1.83e5; induced reporter light, run 1, well b = 1.97e5; control promoter light, run 1, well a = 2.15e5; control promoter light, run 1, well b = 2.33e5; uninduced reporter light, run 1, well a = 15515; outcome = inactive
exu (exuperantia): induced reporter light, run 1, well a = 1.19e5; induced reporter light, run 1, well b = 99085; control promoter light, run 1, well a = 2.30e5; control promoter light, run 1, well b = 2.43e5; uninduced reporter light, run 1, well a = 11080; outcome = inactive
